Drawing on the supplement of paper PMC12819154, “High-throughput peptide-centric local stability assay extends protein–ligand identification to membrane proteins, tissues and bacteria” (Nature Structural & Molecular Biology, 2025), this text covers log2 fold change for 28 targets.

Amino acid sequences for entries named in this document (tags omitted). A change or cut given only in a name is not applied to a line headed by its entry.
UniProt P52793: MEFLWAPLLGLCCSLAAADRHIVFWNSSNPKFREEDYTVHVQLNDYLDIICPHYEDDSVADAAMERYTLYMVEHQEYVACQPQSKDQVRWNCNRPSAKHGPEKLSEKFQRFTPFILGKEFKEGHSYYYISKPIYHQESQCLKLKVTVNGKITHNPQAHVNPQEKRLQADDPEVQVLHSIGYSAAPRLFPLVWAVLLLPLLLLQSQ
UniProt P49117: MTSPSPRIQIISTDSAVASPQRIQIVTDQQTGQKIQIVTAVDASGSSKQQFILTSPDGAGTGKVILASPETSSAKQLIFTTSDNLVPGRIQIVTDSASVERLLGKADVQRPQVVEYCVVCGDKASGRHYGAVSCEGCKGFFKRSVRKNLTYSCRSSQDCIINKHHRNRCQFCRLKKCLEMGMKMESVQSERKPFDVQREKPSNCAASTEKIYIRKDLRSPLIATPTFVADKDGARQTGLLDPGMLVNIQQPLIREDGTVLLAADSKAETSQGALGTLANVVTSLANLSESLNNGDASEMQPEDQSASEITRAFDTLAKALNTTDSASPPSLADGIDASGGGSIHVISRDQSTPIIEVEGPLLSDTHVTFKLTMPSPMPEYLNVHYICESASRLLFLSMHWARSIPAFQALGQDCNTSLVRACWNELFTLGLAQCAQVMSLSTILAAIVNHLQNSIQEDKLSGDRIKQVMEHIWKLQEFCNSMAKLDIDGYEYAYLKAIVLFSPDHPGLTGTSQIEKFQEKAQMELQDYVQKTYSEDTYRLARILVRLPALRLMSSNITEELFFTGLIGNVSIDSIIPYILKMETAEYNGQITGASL
UniProt P53986: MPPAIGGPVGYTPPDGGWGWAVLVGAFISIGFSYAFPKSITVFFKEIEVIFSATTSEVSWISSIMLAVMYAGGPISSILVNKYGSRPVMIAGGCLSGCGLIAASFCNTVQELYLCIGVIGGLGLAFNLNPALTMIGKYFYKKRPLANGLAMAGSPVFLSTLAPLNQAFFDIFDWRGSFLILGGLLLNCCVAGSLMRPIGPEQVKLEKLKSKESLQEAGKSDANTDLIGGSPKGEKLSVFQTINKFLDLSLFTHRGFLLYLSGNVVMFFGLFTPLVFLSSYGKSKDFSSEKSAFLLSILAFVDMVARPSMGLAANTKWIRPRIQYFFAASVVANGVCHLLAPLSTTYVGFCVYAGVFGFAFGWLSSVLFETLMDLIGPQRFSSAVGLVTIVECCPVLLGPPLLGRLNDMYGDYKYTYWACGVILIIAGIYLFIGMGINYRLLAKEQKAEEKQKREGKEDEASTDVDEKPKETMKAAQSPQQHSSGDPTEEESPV
UniProt P35991: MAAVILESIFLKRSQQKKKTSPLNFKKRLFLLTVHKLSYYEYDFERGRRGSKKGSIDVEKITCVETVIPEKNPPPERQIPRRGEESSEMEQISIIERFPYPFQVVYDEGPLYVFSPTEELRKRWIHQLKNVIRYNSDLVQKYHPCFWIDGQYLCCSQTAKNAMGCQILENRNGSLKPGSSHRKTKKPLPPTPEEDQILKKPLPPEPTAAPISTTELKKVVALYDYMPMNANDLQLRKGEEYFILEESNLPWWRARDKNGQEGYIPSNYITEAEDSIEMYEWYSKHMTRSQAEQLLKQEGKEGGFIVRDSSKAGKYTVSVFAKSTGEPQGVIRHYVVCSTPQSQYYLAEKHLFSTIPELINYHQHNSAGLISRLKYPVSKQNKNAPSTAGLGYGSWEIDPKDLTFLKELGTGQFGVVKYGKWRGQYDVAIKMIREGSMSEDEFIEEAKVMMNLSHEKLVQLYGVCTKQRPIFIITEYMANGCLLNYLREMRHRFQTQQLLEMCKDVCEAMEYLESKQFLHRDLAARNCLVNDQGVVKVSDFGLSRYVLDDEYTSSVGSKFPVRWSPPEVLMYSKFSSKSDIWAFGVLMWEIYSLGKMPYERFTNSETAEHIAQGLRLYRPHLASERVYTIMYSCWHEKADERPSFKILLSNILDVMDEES
UniProt P50518, whole entry: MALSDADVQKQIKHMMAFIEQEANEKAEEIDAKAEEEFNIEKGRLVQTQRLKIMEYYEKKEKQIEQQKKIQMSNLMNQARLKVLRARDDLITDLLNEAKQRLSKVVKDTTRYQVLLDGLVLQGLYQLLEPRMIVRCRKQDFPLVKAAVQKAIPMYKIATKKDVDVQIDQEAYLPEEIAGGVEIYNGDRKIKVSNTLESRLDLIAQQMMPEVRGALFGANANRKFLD
UniProt P42209: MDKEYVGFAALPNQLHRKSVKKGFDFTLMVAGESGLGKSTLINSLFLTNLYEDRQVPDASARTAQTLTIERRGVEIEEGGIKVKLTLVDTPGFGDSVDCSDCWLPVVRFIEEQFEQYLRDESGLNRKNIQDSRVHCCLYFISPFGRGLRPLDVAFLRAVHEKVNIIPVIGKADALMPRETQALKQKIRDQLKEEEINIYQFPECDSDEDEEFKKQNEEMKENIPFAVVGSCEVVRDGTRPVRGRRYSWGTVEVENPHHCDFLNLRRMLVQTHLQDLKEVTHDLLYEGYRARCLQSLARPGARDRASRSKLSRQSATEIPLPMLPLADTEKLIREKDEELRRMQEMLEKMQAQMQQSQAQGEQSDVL
UniProt P39098: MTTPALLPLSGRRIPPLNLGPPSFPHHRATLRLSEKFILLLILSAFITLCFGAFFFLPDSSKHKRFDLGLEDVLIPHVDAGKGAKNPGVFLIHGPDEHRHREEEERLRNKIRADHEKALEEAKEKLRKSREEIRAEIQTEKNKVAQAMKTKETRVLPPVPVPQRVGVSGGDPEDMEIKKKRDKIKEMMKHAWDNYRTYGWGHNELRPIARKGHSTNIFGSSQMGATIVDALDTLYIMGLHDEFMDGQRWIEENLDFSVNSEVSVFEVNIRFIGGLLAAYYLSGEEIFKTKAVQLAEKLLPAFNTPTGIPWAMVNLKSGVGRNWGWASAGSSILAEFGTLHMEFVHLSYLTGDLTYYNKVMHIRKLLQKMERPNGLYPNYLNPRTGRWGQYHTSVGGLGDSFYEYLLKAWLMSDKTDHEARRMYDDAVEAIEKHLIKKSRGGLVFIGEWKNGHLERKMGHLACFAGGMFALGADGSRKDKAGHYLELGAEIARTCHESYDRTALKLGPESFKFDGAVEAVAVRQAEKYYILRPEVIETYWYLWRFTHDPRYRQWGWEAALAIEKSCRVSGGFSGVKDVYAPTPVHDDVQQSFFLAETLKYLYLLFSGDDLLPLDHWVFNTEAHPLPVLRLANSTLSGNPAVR
UniProt P52430: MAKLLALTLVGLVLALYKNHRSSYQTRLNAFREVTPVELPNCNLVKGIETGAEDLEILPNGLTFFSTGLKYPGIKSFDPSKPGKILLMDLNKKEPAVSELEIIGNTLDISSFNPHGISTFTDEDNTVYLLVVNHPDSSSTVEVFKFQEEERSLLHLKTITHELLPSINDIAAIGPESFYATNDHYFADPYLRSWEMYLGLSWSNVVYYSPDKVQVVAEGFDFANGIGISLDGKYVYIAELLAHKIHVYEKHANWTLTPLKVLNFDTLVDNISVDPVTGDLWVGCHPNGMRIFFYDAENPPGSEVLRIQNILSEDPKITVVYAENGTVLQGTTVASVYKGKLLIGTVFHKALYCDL
UniProt P43024, whole entry: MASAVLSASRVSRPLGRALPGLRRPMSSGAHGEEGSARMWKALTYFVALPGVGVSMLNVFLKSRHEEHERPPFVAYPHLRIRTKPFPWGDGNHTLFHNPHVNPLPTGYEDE
UniProt P43277, whole entry: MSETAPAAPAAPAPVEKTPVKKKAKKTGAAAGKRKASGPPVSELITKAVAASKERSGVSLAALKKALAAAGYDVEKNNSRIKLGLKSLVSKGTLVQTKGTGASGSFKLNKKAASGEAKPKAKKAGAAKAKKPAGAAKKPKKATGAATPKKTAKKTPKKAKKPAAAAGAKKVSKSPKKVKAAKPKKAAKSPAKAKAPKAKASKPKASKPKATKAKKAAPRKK
UniProt P53349: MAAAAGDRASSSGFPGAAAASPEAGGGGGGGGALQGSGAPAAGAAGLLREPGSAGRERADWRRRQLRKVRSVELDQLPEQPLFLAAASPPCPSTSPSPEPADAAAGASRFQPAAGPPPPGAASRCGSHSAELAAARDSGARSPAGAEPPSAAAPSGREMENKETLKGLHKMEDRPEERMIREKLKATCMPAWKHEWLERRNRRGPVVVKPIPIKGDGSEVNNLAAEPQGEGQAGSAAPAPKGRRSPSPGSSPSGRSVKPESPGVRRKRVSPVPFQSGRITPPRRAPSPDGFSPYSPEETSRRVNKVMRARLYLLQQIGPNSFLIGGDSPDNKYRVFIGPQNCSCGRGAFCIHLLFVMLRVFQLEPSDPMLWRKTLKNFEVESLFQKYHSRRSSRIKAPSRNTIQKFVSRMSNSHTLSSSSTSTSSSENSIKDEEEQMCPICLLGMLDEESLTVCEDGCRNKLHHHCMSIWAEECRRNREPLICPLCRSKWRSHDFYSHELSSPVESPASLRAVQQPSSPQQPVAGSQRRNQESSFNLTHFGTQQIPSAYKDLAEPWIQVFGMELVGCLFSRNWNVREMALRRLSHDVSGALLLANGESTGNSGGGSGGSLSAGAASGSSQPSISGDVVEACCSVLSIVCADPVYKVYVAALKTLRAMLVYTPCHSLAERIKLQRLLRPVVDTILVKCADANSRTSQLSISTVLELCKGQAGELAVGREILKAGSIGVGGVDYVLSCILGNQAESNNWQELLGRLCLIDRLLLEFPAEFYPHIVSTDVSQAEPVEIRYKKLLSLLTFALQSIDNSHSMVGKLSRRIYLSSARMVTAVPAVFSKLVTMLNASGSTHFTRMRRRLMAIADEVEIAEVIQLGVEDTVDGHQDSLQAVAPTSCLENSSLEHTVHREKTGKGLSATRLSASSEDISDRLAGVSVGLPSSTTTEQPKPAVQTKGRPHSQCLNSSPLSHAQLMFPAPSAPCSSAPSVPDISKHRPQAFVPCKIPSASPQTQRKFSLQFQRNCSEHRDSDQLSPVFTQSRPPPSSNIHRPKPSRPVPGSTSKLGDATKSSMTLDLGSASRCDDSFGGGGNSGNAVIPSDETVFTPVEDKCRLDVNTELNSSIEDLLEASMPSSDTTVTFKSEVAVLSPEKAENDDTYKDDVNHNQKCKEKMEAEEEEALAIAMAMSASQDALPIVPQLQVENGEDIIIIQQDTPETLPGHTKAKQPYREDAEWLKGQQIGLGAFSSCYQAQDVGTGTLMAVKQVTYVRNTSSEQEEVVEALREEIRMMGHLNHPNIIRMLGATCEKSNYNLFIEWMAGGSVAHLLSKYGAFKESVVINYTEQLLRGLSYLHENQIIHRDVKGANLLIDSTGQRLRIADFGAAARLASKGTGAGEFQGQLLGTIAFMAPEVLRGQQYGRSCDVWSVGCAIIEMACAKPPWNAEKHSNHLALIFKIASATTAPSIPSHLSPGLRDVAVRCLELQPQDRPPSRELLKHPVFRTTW
UniProt P37040: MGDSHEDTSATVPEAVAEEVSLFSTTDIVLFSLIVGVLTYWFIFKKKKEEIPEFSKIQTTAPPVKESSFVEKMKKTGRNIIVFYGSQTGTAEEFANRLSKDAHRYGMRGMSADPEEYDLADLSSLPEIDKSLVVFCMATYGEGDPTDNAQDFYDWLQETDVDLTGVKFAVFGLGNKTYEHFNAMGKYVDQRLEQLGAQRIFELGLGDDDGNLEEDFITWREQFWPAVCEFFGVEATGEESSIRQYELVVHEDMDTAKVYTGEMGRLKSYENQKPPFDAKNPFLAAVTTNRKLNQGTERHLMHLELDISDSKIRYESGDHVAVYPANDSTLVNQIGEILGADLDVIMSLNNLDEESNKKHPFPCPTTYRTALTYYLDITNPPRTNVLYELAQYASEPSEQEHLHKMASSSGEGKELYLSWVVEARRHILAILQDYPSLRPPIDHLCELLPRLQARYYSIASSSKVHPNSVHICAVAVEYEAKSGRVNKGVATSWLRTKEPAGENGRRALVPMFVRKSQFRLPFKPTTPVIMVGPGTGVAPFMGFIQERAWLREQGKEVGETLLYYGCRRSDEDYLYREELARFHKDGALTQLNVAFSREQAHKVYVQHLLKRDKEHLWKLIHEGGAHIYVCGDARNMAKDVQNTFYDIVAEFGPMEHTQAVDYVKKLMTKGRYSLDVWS
UniProt P38532: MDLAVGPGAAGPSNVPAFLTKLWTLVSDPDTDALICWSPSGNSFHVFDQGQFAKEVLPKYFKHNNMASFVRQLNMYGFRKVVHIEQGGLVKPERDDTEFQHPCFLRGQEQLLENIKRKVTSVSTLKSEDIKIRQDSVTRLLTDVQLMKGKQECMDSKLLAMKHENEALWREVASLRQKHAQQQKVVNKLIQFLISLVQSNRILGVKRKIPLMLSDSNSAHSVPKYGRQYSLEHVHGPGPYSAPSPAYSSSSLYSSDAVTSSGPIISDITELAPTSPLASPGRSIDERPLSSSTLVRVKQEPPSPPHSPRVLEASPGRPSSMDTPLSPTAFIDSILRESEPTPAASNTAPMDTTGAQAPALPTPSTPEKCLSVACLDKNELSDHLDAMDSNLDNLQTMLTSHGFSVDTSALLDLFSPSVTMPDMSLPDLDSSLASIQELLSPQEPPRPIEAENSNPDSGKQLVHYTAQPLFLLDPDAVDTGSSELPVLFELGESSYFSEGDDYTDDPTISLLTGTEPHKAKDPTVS

The other results are listed elsewhere or left out. Most entries show no effect beyond the scatter of the controls.

Compound in the assay: CN[C@@H]1C[C@H]2O[C@@](C)([C@@H]1OC)n1c3ccccc3c3c4c(c5c6ccccc6n2c5c31)C(=O)NC4 [staurosporine]
The experiment in a line: log2 fold change of tryptic peptide abundance, ligand vs vehicle (limited proteolysis) (log2 ratio); higher = more trypsin-susceptible (destabilized). The settings on record: ligand concentration: 20 uM; sample: mouse liver crude lysate; replicate design: treated separately.
As for “UniProt P52793 (peptide sequence: FTPFILGK, peptide start residue: 111)”, the log2 fold change was -0.00111.
In the case of “UniProt P43407 (peptide sequence: KPSSAAYQK, peptide start residue: 186)” it was -0.147.
Take “UniProt P42225 (peptide sequence: KILENAQR, peptide start residue: 114)”: the log2 fold change is -0.111.
The same measure for “UniProt P49312 (peptide sequence: YHTVNGHNCEVR, peptide start residue: 167)”: 0.377.
In the case of “UniProt P49117 (peptide sequence: HYGAVSCEGCK, peptide start residue: 128)” it was 0.413; in that of “UniProt P52633 (peptide sequence: SHYKPEQMGK, peptide start residue: 627)”, -0.358.
Regarding “UniProt P53995 (peptide sequence: FNLSSHSQSPKR, peptide start residue: 369)”, the log2 fold change was -0.241.
With “UniProt P50171 (peptide sequence: HAAFQADVSQGPAARR, peptide start residue: 67)”, the log2 fold change worked out at 0.2.
In the case of “UniProt P53986 (peptide sequence: EDEASTDVDEKPKETMK, peptide start residue: 457)” it was -0.212; in that of “UniProt P52479 (peptide sequence: TVQDALESLVAR, peptide start residue: 636)”, 0.153; in that of “UniProt P35991 (peptide sequence: NCLVNDQGVVK, peptide start residue: 526)”, 0.606.
In the case of “UniProt P50518 (peptide sequence: IMEYYEKKEK, peptide start residue: 53)” it was 0.493; in that of “UniProt P42209 (peptide sequence: EVTHDLLYEGYR, peptide start residue: 278)”, -0.332.
With “UniProt P42227 (peptide sequence: RVQDLEQK, peptide start residue: 154)”, the log2 fold change is -0.718.
Consider “UniProt P45878 (peptide sequence: GAPPKIPGGATLVFEVELLK, peptide start residue: 114)”, for which the log2 fold change stood at 0.319.
In the case of “UniProt P39098 (peptide sequence: RIPPLNLGPPSFPHHR, peptide start residue: 13)” it was 0.355; in that of “UniProt P51880 (peptide sequence: QVGNVTKPTVIISQEGGK, peptide start residue: 32)”, 0.303; in that of “UniProt P35601 (peptide sequence: LNDEAIAK, peptide start residue: 197)”, -0.335.
In the case of “UniProt P52430 (peptide sequence: LLIGTVFHK, peptide start residue: 341)” it was 0.103; in that of “UniProt P43024 (peptide sequence: SRHEEHERPPFVAYPHLR, peptide start residue: 63)”, -0.195; in that of “UniProt P43277 (peptide sequence: SETAPAAPAAPAPVEKTPVK, peptide start residue: 2)”, -0.236.
The same measure for “UniProt P53349 (peptide sequence: MMGHLNHPNIIR, peptide start residue: 1278)”: 0.508.
As for “UniProt P37040 (peptide sequence: IQTTAPPVK, peptide start residue: 57)”, the log2 fold change worked out at 0.344.
In the case of “UniProt P36536 (peptide sequence: TDAISEEK, peptide start residue: 139)” it was -0.357; in that of “UniProt P53657 (peptide sequence: EPPEAVWADDVDRR, peptide start residue: 519)”, -0.271.
In the case of “UniProt P46938 (peptide sequence: NINPSTANAPKCQELALR, peptide start residue: 317)” it was -0.198.
As to “UniProt P38532 (peptide sequence: LLTDVQLMK, peptide start residue: 140)”, the log2 fold change came to 0.25.
The same measure for “UniProt P50294 (peptide sequence: TAFGISLER, peptide start residue: 269)”: -0.0192.
